From publication doi:10.1101/2025.03.12.642832
These are yes or no findings as the source states them, for the method shown. Some entries that bind do so weakly or less than the wild type.

Chains of the proteins cited; added tags and fusions are not shown.
UniProt Q869W9, whole entry: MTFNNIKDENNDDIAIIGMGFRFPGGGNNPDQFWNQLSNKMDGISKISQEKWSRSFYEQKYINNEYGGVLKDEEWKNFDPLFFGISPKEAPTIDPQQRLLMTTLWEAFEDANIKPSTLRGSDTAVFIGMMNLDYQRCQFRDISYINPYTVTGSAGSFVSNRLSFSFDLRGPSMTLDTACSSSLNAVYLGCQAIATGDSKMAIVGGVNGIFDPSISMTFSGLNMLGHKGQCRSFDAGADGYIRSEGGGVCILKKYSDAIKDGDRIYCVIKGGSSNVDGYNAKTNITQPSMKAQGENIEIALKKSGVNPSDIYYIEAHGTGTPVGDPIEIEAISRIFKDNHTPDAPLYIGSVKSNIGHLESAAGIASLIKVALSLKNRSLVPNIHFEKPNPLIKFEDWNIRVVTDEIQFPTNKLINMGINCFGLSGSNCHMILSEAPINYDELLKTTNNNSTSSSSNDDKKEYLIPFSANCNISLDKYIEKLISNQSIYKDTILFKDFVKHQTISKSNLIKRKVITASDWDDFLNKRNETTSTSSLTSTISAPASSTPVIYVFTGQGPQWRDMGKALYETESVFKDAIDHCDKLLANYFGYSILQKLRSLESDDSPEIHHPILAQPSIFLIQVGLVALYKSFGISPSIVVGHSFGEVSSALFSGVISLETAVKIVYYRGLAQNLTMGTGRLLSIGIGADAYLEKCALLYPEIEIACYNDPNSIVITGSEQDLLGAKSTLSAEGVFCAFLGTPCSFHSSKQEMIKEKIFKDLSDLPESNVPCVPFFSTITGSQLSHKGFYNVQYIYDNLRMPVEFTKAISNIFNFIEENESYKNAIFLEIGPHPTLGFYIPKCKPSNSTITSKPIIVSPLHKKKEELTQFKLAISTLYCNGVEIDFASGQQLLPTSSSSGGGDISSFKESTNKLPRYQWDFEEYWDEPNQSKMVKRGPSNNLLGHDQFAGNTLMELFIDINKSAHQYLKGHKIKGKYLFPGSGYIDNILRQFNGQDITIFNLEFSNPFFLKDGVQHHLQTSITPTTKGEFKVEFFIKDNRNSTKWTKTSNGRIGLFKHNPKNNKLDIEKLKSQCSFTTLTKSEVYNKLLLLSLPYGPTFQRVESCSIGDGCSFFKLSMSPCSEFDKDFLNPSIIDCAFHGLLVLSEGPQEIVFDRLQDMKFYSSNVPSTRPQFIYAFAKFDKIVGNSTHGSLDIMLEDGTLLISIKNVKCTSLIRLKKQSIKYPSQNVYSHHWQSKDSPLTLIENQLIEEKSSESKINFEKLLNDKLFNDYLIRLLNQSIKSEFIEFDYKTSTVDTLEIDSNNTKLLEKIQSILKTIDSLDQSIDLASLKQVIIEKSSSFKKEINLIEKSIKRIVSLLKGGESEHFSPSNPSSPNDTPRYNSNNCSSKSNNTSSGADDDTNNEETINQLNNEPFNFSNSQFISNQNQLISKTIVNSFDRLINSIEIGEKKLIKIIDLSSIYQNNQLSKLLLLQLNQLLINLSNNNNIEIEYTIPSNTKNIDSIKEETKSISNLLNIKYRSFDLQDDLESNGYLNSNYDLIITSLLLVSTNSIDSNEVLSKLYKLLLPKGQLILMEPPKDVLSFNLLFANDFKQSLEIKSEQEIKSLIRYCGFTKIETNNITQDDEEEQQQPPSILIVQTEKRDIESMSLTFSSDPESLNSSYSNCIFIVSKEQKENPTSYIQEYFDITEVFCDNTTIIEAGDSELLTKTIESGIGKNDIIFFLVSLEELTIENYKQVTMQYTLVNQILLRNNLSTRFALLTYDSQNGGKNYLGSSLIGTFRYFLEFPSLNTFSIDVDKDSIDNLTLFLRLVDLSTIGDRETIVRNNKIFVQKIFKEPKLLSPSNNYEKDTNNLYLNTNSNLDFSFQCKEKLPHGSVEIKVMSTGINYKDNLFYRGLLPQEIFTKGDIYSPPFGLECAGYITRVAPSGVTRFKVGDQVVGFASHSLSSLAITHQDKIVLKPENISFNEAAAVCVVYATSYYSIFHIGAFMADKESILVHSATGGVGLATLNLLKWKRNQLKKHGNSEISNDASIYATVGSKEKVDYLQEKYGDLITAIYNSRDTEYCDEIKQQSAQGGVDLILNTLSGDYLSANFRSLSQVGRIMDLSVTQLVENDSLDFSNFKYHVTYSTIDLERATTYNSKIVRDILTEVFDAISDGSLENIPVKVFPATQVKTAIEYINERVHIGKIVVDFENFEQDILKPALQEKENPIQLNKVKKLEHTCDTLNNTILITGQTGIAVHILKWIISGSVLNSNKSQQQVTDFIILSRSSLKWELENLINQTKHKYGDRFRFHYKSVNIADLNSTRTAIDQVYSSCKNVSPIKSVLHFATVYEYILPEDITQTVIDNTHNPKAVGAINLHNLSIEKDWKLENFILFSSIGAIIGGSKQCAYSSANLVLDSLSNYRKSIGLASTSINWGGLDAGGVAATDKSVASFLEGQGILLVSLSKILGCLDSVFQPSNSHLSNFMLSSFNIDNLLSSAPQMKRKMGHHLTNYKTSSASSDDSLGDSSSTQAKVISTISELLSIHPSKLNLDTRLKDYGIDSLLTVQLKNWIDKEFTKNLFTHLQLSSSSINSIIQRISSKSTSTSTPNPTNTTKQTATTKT

B1: dihydrolipoyllysine-residue succinyltransferase (Odo2) of the mitochondrial 2-oxoglutarate dehydrogenase complex (enzyme, UniProt Q869Y7 48-439)
chain: FTSLFNNNNVNNTNIKYQRFYSSANDVVIKVPSMGDSISEGTIVAWTKNVGDSVRVDEVVCSIETDKVTIDINAPVSGTIVELFAKEGENVTVGNDLYKIAKGEVAAAPKVEAPKAAEAPKAAAPTPAPKAAETPKAAPAPKSEAPTPAPKSTTTTTSTGPSETRVKMTRIRQRTAQRLKDSQNTAAMLTTFNELDMSALMNMRKTYKDEFEKKHGVKFGFMSAFVKASTIALKEQPIVNASVEENDIVYHNNVNINVAVSAPRGLVVPVIRNCENLSFADIEKEIGRLSGLARNDALAIEDSIGGTFTISNGGVFGSMFGTPIINPPQSAILGMHAIKDRPYVVNGQVVVRPIMYLALTYDHRIIDGREAVTFLKKIKDVLENPERILLEL

Tests used:
[1] = target: polyketide synthase 16 (Pks16) (D. discoideum (endogenous in AX2-214 cells)) (UniProt Q869W9); test: cryo-EM structure
[2] = target: dihydrolipoyllysine-residue succinyltransferase (Odo2) of the mitochondrial 2-oxoglutarate dehydrogenase complex (D. discoideum (endogenous in AX2-214 cells)) (UniProt Q869Y7); test: cryo-EM structure

Row | Molecule | binding [1] | binding [2]
1 | polyketide synthase 16 (Pks16) (from UniProt Q869W9 1-2603) (enzyme) | binds | –
2 | B1 | – | binds
